Results as given in PMC9788671.

The chains behind the UniProt entries cited, without tags or fusion partners.
UniProt Q9NZV8: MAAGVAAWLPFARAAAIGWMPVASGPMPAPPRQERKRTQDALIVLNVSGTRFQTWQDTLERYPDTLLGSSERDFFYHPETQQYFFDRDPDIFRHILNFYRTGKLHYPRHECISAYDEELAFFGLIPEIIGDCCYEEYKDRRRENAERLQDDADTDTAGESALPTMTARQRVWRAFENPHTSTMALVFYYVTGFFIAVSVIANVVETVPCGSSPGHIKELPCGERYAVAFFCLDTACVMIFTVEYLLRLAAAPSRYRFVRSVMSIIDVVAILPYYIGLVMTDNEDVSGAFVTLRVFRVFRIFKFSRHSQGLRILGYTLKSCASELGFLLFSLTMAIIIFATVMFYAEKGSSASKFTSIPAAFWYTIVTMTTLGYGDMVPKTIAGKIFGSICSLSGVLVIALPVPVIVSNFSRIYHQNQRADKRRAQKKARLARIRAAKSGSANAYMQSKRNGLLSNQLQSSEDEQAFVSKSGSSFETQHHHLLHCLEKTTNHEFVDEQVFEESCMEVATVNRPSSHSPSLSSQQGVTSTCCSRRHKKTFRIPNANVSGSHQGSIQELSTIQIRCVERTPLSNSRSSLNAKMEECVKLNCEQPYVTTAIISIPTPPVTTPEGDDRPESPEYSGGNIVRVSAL

B1: Brsk2 (protein, UniProt D3ZML2 1-735)
chain: MTSTGKDGGGAQHAQYVGPYRLEKTLGKGQTGLVKLGIHCVTCQKVAIKIVNREKLSESVLMKVEREIAILKLIEHPHVLKLHDVYENKKYLYLVLEHVSGGELFDYLVKKGRLTPKEARKFFRQIISALDFCHSHSICHRDLKPENLLLDERNNIRIADFGMASLQVGDSLLETSCGSPHYACPEVIRGEKYDGRKADVWSCGVILFALLVGALPFDDDNLRQLLEKVKRGVFHMPHFIPPDCQSLLRGMIEVDAARRLTLEHIQKHIWYIGGKNEPEPEQPIPRKVQIRSLPSLEDIDPDVLDSMHSLGCFRDRNKLLQDLLSEEENQEKMIYFLLLDRKERYPSHEDEDLPPRNEIDPPRKRVDSPMLNRHGKRRPERKSMEVLSVTDGGSPVPARRAIEMAQHGQRSRSISGASSGLSTSPLSSPRVTPHPSPRGSPLPTPKGTPVHTPKESPAGTPNPTPPSSPSVGGVPWRTRLNSIKNSFLGSPRFHRRKLQVPTPEEMSNLTPESSPELGHLQLFGNPVSKVRSVAMELVILVQTLAYTSFRLLGTFLPVRYLRHSVLSRPPERARLVLRGAPCTHMGPVWNMVGMAYTQNPPIMGETGVYGSQWVMSSAPSKHYTSLGLSVPSPSCSLSPSLFPFCAPDTTNCMEVMTGRLSKCGTPLSNFFDVIKQLFSDEKNGQAAQAPSTPAKRSAHGPLGDSAAAGPGGDTEYPMGKDMAKMGPPAARREQP
B2: Slc25a13 (protein, UniProt F1LZW6 1-676)
chain: MAAAKVALTKRADPAELKAIFLKYASIEKNGEFFMSPHDFVTRYLNIFGESQPNPKTVELLSGVVDQTKDGLISFQEFVAFESVLCAPDALFMVAFQLFDKAGKGEVTFEDVRQVFGQTTIHQHIPFNWDSEFVQLHFGKERKRHLTYAEFTQFLLEIQLEHAKQAFVQRDNAKTGKVTAIDFRDIMVTIRPHVLTPFVEECLVAAAGGTRSHQVSFSYFNGFNSLLNNMELIRKIYSTLAGSRKDVEVTKEEFALAAQKFGQVTPMEVDILFQLADLYEPRGRMTLADIERIAPLEEGMLPFNLAEAQRQQKASGDAARPFLLQLAESAYRFGLGSIAGAVGATAVYPIDLVKTRMQNQRSTGSFVGELMYKNSFDCFKKVLRYEGFFGLYRGLLPQLLGVAPEKAIKLTVNDFVRDKFMHKDGSVPLLAEIFAGGCAGGSQVIFTNPLEIVKIRLQVAGEITTGPRVSALSVVRDLGFFGIYKGAKACFLRDIPFSAIYFPCYAHVKASFANEDGQVSPGSLLLAGAIAGMPAASLVTPADVIKTRLQVAARAGQTTYSGVTDCFRKILREEGPKALWKGAGARVFRSSPQFGVTLLTYELLQRWFYVDFGGVKPVGSELVPKSRITLPAPNPDHVGGYKLAVATFAGIENKFGLYLPLFKPSASTSKVTAVGS
B3: Trim3 (protein, UniProt O70277 1-744)
chain: MAKREDSPGPEVQPMDKQFLVCSICLDRYRCPKVLPCLHTFCERCLQNYIPPQSLTLSCPVCRQTSILPEQGVSALQNNFFISSLMEAMQQAPDGAHDPEDPHPLSAVAGRPLSCPNHEGKTMEFYCEACETAMCGECRAGEHREHGTVLLRDVVEQHKAALQRQLEAVRGRLPQLSAAIALVGGISQQLQERKAEALAQISAAFEDLEQALQQRKQALVSDLESICGAKQKVLQTQLDTLRQGQEHIGSSCSFAEQALRLGSAPEVLLVRKHMRERLAALAAQAFPERPHENAQLELVLEVDGLRRSVLNLGALLTTSAAAHETVATGEGLRQALVGQPASLTVTTKDKDGRLVRTGSAELCAEITGPDGMRLAVPVVDHKNGTYELVYTARTEGDLLLSVLLYGQPVRGSPFRVRALRPGDLPPSPDDVKRRVKSPGGPGSHVRQKAVRRPSSMYSTGGKRKDNPIVDELVFRVGSRGREKGEFTNLHPLSAASSGRIVVADSNNQCIQVFSNEGQFKFRFGVRGRSPGQLQRPTGVAVDTNGDIIVADYDNRWVSIFSPEGKFKTKIGAGRLMGPKGVAVDRNGHIIVVDNKSCCVFTFQPNGKLVGRFGGRGATDRHFAGPHFVAVNNKNEIVVTDFHNHSVKVYSADGEFLFKFGSHGEGNGQFNAPTGVAVDSNGNIIVADWGNSRIQVFDSSGSFLSYINTSAEPLYGPQGLALTSDGHVVVADAGNHCFKAYRYLQ
B4: Abcd3 (protein, UniProt P16970 1-659)
chain: MAAFSKYLTARNSSLAGAAFLLFCLLHKRRRALGLHGKKSGKPPLQNNEKEGKKERAVVDKVFLSRLSQILKIMVPRTFCKETGYLILIAVMLVSRTYCDVWMIQNGTLIESGIIGRSSKDFKRYLFNFIAAMPLISLVNNFLKYGLNELKLCFRVRLTRYLYEEYLQAFTYYKMGNLDNRIANPDQLLTQDVEKFCNSVVDLYSNLSKPFLDIVLYIFKLTSAIGAQGPASMMAYLLVSGLFLTRLRRPIGKMTIMEQKYEGEYRFVNSRLITNSEEIAFYNGNKREKQTIHSVFRKLVEHLHNFIFFRFSMGFIDSIIAKYIATVVGYLVVSRPFLDLAHPRHLHSTHSELLEDYYQSGRMLLRMSQALGRIVLAGREMTRLAGFTARITELMQVLKDLNHGKYERTMVSQQDKGIEGAQASPLIPGAGEIINADNIIKFDHVPLATPNGDILIQDLSFEVRSGANVLICGPNGCGKSSLFRVLGELWPLFGGHLTKPERGKLFYVPQRPYMTLGTLRDQVIYPDGKEDQKKKGISDQVLKGYLDNVQLGHILEREGGWDSVQDWMDVLSGGEKQRMAMARLFYHKPQFAILDECTSAVSVDVEDYIYSHCRKVGITLFTVSHRKSLWKHHEYYLHMDGRGNYEFKKITEDTVEFGS
B5: Dlat (protein, UniProt P08461 78-632)
chain: SLPPHQKVPLPSLSPTMQAGTIARWEKKEGEKISEGDLIAEVETDKATVGFESLEECYMAKILVPEGTRDVPVGSIICITVEKPQDIEAFKNYTLDSATAATQAAPAPAAAPAAAPAAPSASAPGSSYPVHMQIVLPALSPTMTMGTVQRWEKKVGEKLSEGDLLAEIETDKATIGFEVQEEGYLAKILVPEGTRDVPLGTPLCIIVEKQEDIAAFADYRPTEVTSLKPQAPPPVPPPVAAVPPIPQPLAPTPSAAPAGPKGRVFVSPLAKKLAAEKGIDLTQVKGTGPEGRIIKKDIDSFVPTKAAPAAAAAAPPGPRVAPTPAGVFIDIPISNIRRVIAQRLMQSKQTIPHYYLSVDVNMGEVLLVRKELNKMLEGKGKISVNDFIIKASALACLKVPEANSSWMDTVIRQNHVVDVSVAVSTPAGLITPIVFNAHIKGLETIASDVVSLASKAREGKLQPHEFQGGTFTISNLGMFGIKNFSAIINPPQACILAIGASEDKLIPADNEKGFDVASVMSVTLSCDHRVVDGAVGAQWLAEFKKYLEKPVTMLL
B6: Cct3 (protein, UniProt Q6P502 1-545)
chain: MMGHRPVLVLSQNTKRESGRKVQSGNINAAKTIADIIRTCLGPKSMMKMLLDPMGGIVMTNDGNAILREIQVQHPAAKSMIEISRTQDEEVGDGTTSVIILAGEMLSVAEHFLEQQMHPTVVISAYRMALDDMVSTLKKISTPVDVNNRDMMLNIINSSITTKVISRWSSLACNIALDAVKTVQFEENGRKEIDIKKYARVEKIPGGIIEDSCVLRGVMINKDVTHPRMRRYIKNPRIVLLDSSLEYKKGESQTDIEITREEDFTRILQMEEEYIQQLCEDIIQLKPDVVITEKGISDLAQHYLMRANVTAIRRVRKTDNNRIARACGARIVSRPEELREDDVGTGAGLLEIKKIGDEYFTFITDCKDPKACTILLRGASKEILSEVERNLQDAMQVCRNVLLDPQLVPGGGASEMAVAHALTEKSKAMTGVEQWPYRAVAQALEVIPRTLIQNCGASTIRLLTSLRAKHTQENCETWGVNGETGTLVDMKELGIWEPLAVKLQTYKTAVETAVLLLRIDDIVSGHKKKGDDQNRQTGAPDAGQE
B7: Dpysl5 (protein, UniProt Q9JHU0 1-564)
chain: MLANSASVRILIKGGKVVNDDCTHEADVYIENGIIQQVGRELMIPGGAKVIDATGKLVIPGGIDTSTHFHQTFMNATCVDDFYHGTKAALVGGTTMIIGHVLPDKETSLVEAYEKCRALADPKVCCDYALHVGITWWAPKVKAEMETLVREKGVNSFQMFMTYKDLYMLRDSELYQVFHACRDFGAIPRVHAENGELVAEGAKEALDLGITGPEGIEISHPEELEAEATHRVITIANRTHCPIYLVNVSSISAGDVIAAAKMQGKVVLAETTNAHATLTGLHYYHQDWSHAAAYVTVPPLRLDTNTSTYLMSLLANDTLNIVASDHRPFTTKQKAMGKEDFTKIPHGVSGVQDRMSVVWERGVVGGKMDENRFVAVTSSNAAKILNLYPRKGRIIPGADADVVVWDPEATKTISASTQVQGGDFNLYENMRCHGVPLVTISRGRVVYENGVFMCAEGTGKFCPLRSFPDIVYKKLVQREKTLKVRGVDRTPYLGDVAVVVNPGKKEMGTPLADTPTRPVTRHGGMRDLHESSFSLSGSQIDDHVPKRASARILAPPGGRSSGIW
B8: Pnpla8 (protein, UniProt D3ZRC4 1-776)
chain: MSINLTLDIYIYFLNNARSFCGKQRSKQLNFLCSKQYWRMNHVNVHREFHTSKKSCKWNRSEAHCSKHWHSSSNHGVHIGIVKLSTSAPKGLTKVSIHMSRIKSTLNSVSKAIFGSQNEMVSRLAQFKPSSRIFRKVSDRGWLKHKNVKQAIESLKNYSDKSAEKNSFAEQKSYFADKEEGSDKHSLYHYAYRITTRFGESFYFLANHINSYFKNKEKMSQIKEDRQLQDKPCLEESKSISPSPDILTDRPDSGPPLNVEDKLSSSTQLPEALPVSTKQSIANFLSRPTEGVQALVGGYIGGLVPKLKSDPKSQPEEEEEPSKTDEPICKDKKAEEKKRVLLQREKIIARVSIDNRTRALVQALRRTTDPKLCITRVEELTFHLLEFPEGKGVAVKEKIIPYLLRLRQIKDETLQAAVREILALIGYVDPVKGRGIRILAIDGGGTRGVVALQTLRKLVELTQKPIHQLFDYICGVSTGAILAFMLGLFHMPLDECEELYRKLGSDVFTQNVIVGTVKMSWSHAFYDSHTWEKILKDKVGSALMIETARDPLCPKVAAVSTIVNRGQTPKAFVFRNYGHFPGTNSHYLGGCQYKMWQAIRASSAAPGYFAEYALGNDLHQDGGLLLNNPSALALHECKCIWPDTPLECIVSLGTGRYESDVRNTTTYTSLKTKLSNVISSATDTEEVHIMLDGLLPADTYFRFNPVICENIPLDESRNEKLDQLQLEGMKYLERNDEKMKKLAKILSREKTTLQKISDWIKLKSDMYEGLPFFSKL
B9: Gpd2 (protein, UniProt P35571 43-727)
chain: ATCFSEPVNREPPSREAQLMTLQNTSEFDILVIGGGATGCGCALDAVTRGLKTALVERNDFASGTSSRSTKLIHGGVRYLQKAITNLDVEQYRMVKEALHERANLLEIAPHLSAPLPIMLPLYKWWQLPYYWVGIKMYDLVAGSHCLKSSYVLSKSRALEHFPMLQKDKLVGAIVYYDGQHNDARMNLAIALTAARYGAATANYMEVVSLLKKTDPETGKERVSGARCKDVLTGHEFNVRAKCVINATGPFTDSVRKMDDNDVVPICQPSAGVHIVMPGYYSPENMGLLDPATSDGRVIFFLPWEKMTIAGTTDSPTDVTHHPIPSEDDINFILNEVRNYLSCDVEVRRGDVLAAWSGIRPLVTDPKSANTQSISRNHVVEVSDSGLITIAGGKWTTYRSMAEDTVNKAVKLHNLNAGPSRTVGLFLQGGKDWSPTLYIRLVQDYGLESEVAQHLAKTYGDKAFDVAKMASVTGKRWPVVGVRLVSEFPYIEAEVKYGIKEYACTAVDMISRRTRLAFLNVQAAEEALPKIVELMGRELNWSELRKQEELETATRFLYYEMGYKSRTEQLTDSTEISLLPPDIDRYKKRFHMFDEDEKGFITIVDVQRVLESINVQMDEDTLHEILCEVDLNKNGQVELHEFLQLMSAVHTGRVSGSRLAILMKTAEENLDRRVPIPVDRSCGGL

These binders were tested against TAP-Kv4.2 (human) (UniProt Q9NZV8) (assay: affinity purification with mass spectrometry; TAP-Kv4.2 expressed by lentivirus in rat hippocampal neurons, harvested at DIV14; weak lysis buffer of the kit (0.1% NP-40); streptavidin resin, then calmodulin resin; gel cut into high and low molecular weight fragments; no MS of the control sample).

| binding | Binder |
| --- | --- |
| binds | B1 |
| binds | B2 |
| binds | B3 |
| binds | B4 |
| binds | B5 |
| binds | B6 |
| binds | B7 |
| binds | B8 |
| binds | B9 |

No constants are given. Whether binding was seen depends on the method and setting. In cells and extracts the contact can be indirect. A yes stands for co-enrichment or nearness to the bait. Other partners may have been found.
